The subject of this experiment is P388 leukemia ip, CD2F1 mice, survival T/C. The experiment is described as follows: NCI In Vivo Anticancer Drug Screen. Data for tumor model P388 Leukemia (intraperitoneal) in CD2F1 (CDF1) mice. The conditions noted are these: T/C endpoint: median survival time, higher T/C = longer survival.
Setting [1] is: dose: 25.0 mg/kg/injection, schedule: Q04DX003 (ip), vehicle: saline.
Where [2] appears, read: dose: 240.0 mg/kg/injection, schedule: Q01DX005 (ip), vehicle: Klucel (hydroxypropylcellulose) (HPC).
Setting [3] is: dose: 6.25 mg/kg/injection, schedule: Q04DX003 (ip), vehicle: saline.
The mark [4] stands for this setting: dose: 12.5 mg/kg/injection, schedule: Q04DX003 (ip), vehicle: saline.
[5] abbreviates: dose: 200.0 mg/kg/injection, schedule: Q04DX003 (ip), vehicle: saline.
Setting [6] is: dose: 240.0 mg/kg/injection, schedule: Q01DX005 (ip), vehicle: saline with Tween-80.
The mark [7] stands for this setting: dose: 120.0 mg/kg/injection, schedule: Q01DX005 (ip), vehicle: saline with Tween-80.

Each structure is given as a SMILES string. The list is a part of this screen's results and no random one: it gathers tests that were run many times, whatever their T/C, doses with no T/C, and many T/C values between a quarter and a half above the control. Other doses and runs of a compound stand elsewhere. T/C: endpoint of the treated group in % of that of the vehicle group. Some entries give survivors of the animals treated and no T/C: the source files T/C as zero there, which appears to mark a toxic dose or a test without result, not a measured value. Some doses without a T/C left all or most animals alive at the check, yet need not have been tolerated: survival well below the control is almost never listed, so the zero probably covers shortened survival too. Counts of survivors are from the toxicity check (mostly the fifth day) where no day follows; animals may have died later. Schedule codes are those of the source, read here as Q, the interval in days (D) or hours (H), X, the number of doses. For survival time, this PubChem deposit counts one and a half times the control or more as active, and values a quarter to a half above the control carry no call in these data; other NCI protocols may use other cut-offs. Some entries hold several experiments; the values are given in rising order. Some T/C values carry the count of animals alive at the toxicity check (mostly the fifth day); where none is given, no animal had died by that day.

`O=C([CH-]C(=O)C(F)(F)F)c1ccccc1.O=C([CH-]C(=O)C(F)(F)F)c1ccccc1.O=C([CH-]C(=O)C(F)(F)F)c1ccccc1.O=C([CH-]C(=O)C(F)(F)F)c1ccccc1.[Eu+3].c1ccncc1`: the T/C (dose: 200.0 mg/kg/injection, schedule: Q01DX009 (ip), vehicle: Klucel (hydroxypropylcellulose) (HPC)) is 127 % of control.

Consider `COc1c(OC)c2oc(=O)c3cc4c(c5oc(=O)c(c1OC)c2c53)OCO4`, for which, where the note is “dose: 14.0 mg/kg/injection, schedule: Q01DX005 (ip), vehicle: other”, the survivor count is reported as 5 of 6.

Consider `CC1CN1P(=O)(N1CC1C)N1CC1C` (stereo not given), for which, under setting [1], the T/C was 136 % of control.

Take `CC(C)CC1[NH][Sn]2([NH]C(CC(C)C)C(=O)[O]2)[O]C1=O` (stereo not given): the survivor count runs as follows: (dose: 50.0 mg/kg/injection, schedule: Q01DX005 (ip), vehicle: Klucel (hydroxypropylcellulose) (HPC)) 3 of 6; (dose: 100.0 mg/kg/injection, schedule: Q01DX005 (ip), vehicle: Klucel (hydroxypropylcellulose) (HPC)) 2 of 6; (dose: 200.0 mg/kg/injection, schedule: Q01DX005 (ip), vehicle: Klucel (hydroxypropylcellulose) (HPC)) 0 of 6.

With `Cc1[nH]c2ccc(N(C)C)cc2c(=O)c1CNCc1ccccc1`, the survivor count runs as follows: (dose: 12.5 mg/kg/injection, schedule: Q01DX009 (ip), vehicle: saline with Tween-80) 2 of 6; (dose: 25.0 mg/kg/injection, schedule: Q01DX009 (ip), vehicle: saline with Tween-80) 0 of 6; (dose: 50.0 mg/kg/injection, schedule: Q01DX009 (ip), vehicle: saline with Tween-80) 1 of 6; (dose: 100.0 mg/kg/injection, schedule: Q01DX009 (ip), vehicle: saline with Tween-80) 0 of 6; (dose: 200.0 mg/kg/injection, schedule: Q01DX009 (ip), vehicle: saline with Tween-80) 0 of 6.

Take `CCOC(=O)c1c[nH]c2c(ccc3cccnc32)c1=O`: the survivor count (dose: 120.0 mg/kg/injection, schedule: Q01DX005 (ip), vehicle: Klucel (hydroxypropylcellulose) (HPC)) was 3 of 6 and the survivor count under setting [2] is 1 of 6.

Turning to `CSC(C#N)(c1ccccc1)N(C)C` (stereo not given), the survivor count by setting is: (dose: 200.0 mg/kg/injection, schedule: Q04DX003 (ip), vehicle: saline with Tween-80) 5 of 6; (dose: 400.0 mg/kg/injection, schedule: Q04DX003 (ip), vehicle: saline with Tween-80) 0 of 6.

For the compound `CC1(C)COCN1CN1COCC1(C)C`, the survivor count by setting is: under setting [3], 5 of 6; under setting [4], 0 of 6; under setting [1], 0 of 6; (dose: 50.0 mg/kg/injection, schedule: Q04DX003 (ip), vehicle: saline) 0 of 6; (dose: 100.0 mg/kg/injection, schedule: Q04DX003 (ip), vehicle: saline) 0 of 6; under setting [5], 0 of 6.

Regarding `COc1ccc2c(c1O)-c1cccc3c1C(C2)N(CCOCCCl)CC3` (stereo not given), the survivor count (dose: 200.0 mg/kg/injection, schedule: Q04DX003 (ip), vehicle: water) was 2 of 6.

Take `CN(C)B(N(C)C)N(C)C`: the survivor count under setting [6] is given as 0 of 6.

For the compound `CCN(CC)CC(=O)c1ccc(O)c(O)c1`, under “dose: 600.0 mg/kg/injection, schedule: Q01DX009 (ip), vehicle: saline with Tween-80”, the survivor count is 1 of 6.

Turning to `CC1(C)COC(=O)C(C)(C2(C)NC(C)(C)COC2=O)N1` (stereo not given), the survivor count (dose: 1600.0 mg/kg/injection, schedule: Q01DX001 (ip), vehicle: saline with Tween-80) was 0 of 4; the survivor count (dose: 3200.0 mg/kg/injection, schedule: Q01DX001 (ip), vehicle: saline with Tween-80) is 0 of 4; the survivor count (dose: 6400.0 mg/kg/injection, schedule: Q01DX001 (ip), vehicle: saline with Tween-80) is recorded as 0 of 4.

Consider `COc1ccc(-n2cnc3c(cnn3CN3CCCCC3)c2=O)cc1`, for which the survivor count under setting [2] is on record as 0 of 6.

As for `C[CH2][Sn]([c]1ccccc1)[c]1ccccc1`, the T/C (dose: 100.0 mg/kg/injection, schedule: Q01DX009 (ip), vehicle: saline) is 133 [4 of 6 alive] and 142 % of control. Besides, the survivor count by setting is: (dose: 200.0 mg/kg/injection, schedule: Q01DX009 (ip), vehicle: saline) 6 of 6; under setting [5], 1 of 6.

On to `CCCCCn1c(C)cc(/C=C\c2ccc3cc(C)ccc3[n+]2C)c1C`, for which the T/C (dose: 0.5 mg/kg/injection, schedule: Q01DX009 (ip), vehicle: saline) is 133 % of control. The survivor count by setting is: (dose: 1.0 mg/kg/injection, schedule: Q01DX009 (ip), vehicle: saline) 1 of 6; (dose: 2.0 mg/kg/injection, schedule: Q01DX009 (ip), vehicle: saline) 1 of 6; under setting [3], 4 of 6; under setting [4], 1 of 6; under setting [1], 0 of 6.

As for `Nc1ncnc2c1nnn2CC(O)CO` (stereo not given), the survivor count under setting [2] is reported as 1 of 6.

Turning to `Cc1ccc(N(CN2C(=O)CCC2=O)CS(=O)(=O)c2ccc(C)cc2)cc1`, the survivor count (dose: 60.0 mg/kg/injection, schedule: Q01DX005 (ip), vehicle: Klucel (hydroxypropylcellulose) (HPC)) is reported as 6 of 6.

Regarding `Fc1ccccc1C(Nc1nncs1)Nc1nncs1`, the T/C is, setting by setting: under setting [7], 127 and 129 % of control; under setting [6], 145 % of control.

As for `COc1cccc2c1oc1c3ccc(O)cc3oc(=O)c21`, the survivor count is 5 of 5 (dose: 12.5 mg/kg/injection, schedule: Q01DX007 (ip), vehicle: carboxymethylcellulose (CMC)) and 5 of 5 (dose: 25.0 mg/kg/injection, schedule: Q01DX007 (ip), vehicle: carboxymethylcellulose (CMC)).

Turning to `CCOC(=O)c1c(C#N)c2cnn(-c3ccccc3)c2n2cccc12`, the survivor count was 6 of 6 under setting [7] and 6 of 6 under setting [6].

For `COc1cc2c(c(OC)c1OC)-c1ccc(SC)c(=O)cc1[C@@H](NC(=O)Oc1ccccc1)CC2`, the T/C (dose: 1.25 mg/kg/injection, schedule: Q01DX009 (ip), vehicle: Klucel (hydroxypropylcellulose) (HPC)) was 125 % of control; the T/C (dose: 2.5 mg/kg/injection, schedule: Q01DX009 (ip), vehicle: Klucel (hydroxypropylcellulose) (HPC)) is 130 and 141 % of control; the T/C (dose: 5.0 mg/kg/injection, schedule: Q01DX009 (ip), vehicle: Klucel (hydroxypropylcellulose) (HPC)) was 146 % of control. Further, for the setting “dose: 20.0 mg/kg/injection, schedule: Q01DX009 (ip), vehicle: Klucel (hydroxypropylcellulose) (HPC)”, the survivor count is 5 of 6.

Consider `Cc1ncc(C[n+]2cccc(CCO)c2C)c(N)n1`, for which the survivor count (dose: 400.0 mg/kg/injection, schedule: Q04DX003 (ip), vehicle: saline) is listed as 0 of 6.

The values above are taken from PubChem BioAssay AID330 (DTP/NCI, 2004).
